No constants are given. Whether binding was seen depends on the method and setting. In cells and extracts the contact can be indirect. Some results given as binding are weak or reduced against the parent protein; the word gives no strength.

Protein sequences, listed by entry. Tags and fused reporters are not part of them.
UniProt Q03358: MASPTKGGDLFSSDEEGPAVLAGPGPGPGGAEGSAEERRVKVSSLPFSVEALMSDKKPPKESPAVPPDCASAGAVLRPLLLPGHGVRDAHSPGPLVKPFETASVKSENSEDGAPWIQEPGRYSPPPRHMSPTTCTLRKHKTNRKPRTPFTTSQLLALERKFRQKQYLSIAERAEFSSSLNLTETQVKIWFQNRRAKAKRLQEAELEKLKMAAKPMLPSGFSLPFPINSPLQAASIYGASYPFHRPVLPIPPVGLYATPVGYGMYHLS
UniProt Q15796: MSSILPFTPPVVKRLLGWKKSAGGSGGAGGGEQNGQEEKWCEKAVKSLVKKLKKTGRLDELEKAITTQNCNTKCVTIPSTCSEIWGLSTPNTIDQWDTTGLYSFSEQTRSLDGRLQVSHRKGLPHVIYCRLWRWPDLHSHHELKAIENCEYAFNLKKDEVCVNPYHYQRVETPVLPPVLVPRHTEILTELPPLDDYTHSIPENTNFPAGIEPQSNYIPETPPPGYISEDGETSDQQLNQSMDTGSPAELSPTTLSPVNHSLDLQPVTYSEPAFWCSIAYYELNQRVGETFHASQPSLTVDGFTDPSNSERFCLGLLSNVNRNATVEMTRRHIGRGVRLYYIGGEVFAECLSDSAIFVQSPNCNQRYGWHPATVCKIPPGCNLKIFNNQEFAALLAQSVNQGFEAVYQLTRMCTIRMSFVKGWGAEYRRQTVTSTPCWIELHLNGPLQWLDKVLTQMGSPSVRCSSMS

The target in this assay is Full-length mouse Msx2 with a C-terminal V5-His tag (mouse) (UniProt Q03358). Description: co-IP; HaCaT cells and Msx2-overexpressing (OE) cells lysed in IP lysis buffer at 4 °C; supernatant incubated overnight at 4 °C with anti-MSX2, anti-SMAD2 or isotype control IgG; Protein A/G PLUS-Agarose beads 8 h at 4 °C; immunoblot with anti-MSX2 and anti-SMAD2.

Regarding SMAD2 (from UniProt Q15796 1-467), the binding entry was “binds”.
